Experimental findings from publication PMC12137140, “The fast-evolving FIKK kinase family of Plasmodium falciparum can be inhibited by a single compound” (Nature Microbiology, 2025) are described below.

No constants are given. Whether binding was seen depends on the method and setting. Binding calls can cover weak binding; strength is not graded here.

In this assay the target is PfFIKK13^149–561_D379N (P. falciparum). Kind of assay: crystal structure; PfFIKK13 149–561 D379N with Nb2G9, Nb9F10 and ATPγS; sitting drops, vapour diffusion, 20 °C; space group P21; both purified.

B1: Nb2G9 (VHH)
VHH: QVQLVESGGGSVQAGGSLRLSCAASGRTFSSYSMAWFRQAPGKERENVAVISWSGSTSYYAESVKGRFTISRDNAKNTVYLQMNSLKPEDTAVYYCAAGPRTTPQAMGAVEYDYWGQGTQVTVSS
Consider B1, for which the binding result was “binds”.

B2: Nb9F10 (VHH)
VHH: QEQLVESGGGLVQAGGSLTLSGASSGGTFETYAMGWFRQAPGKEREFAAAVSWSGGSAHYADSVKGRFTISRDKVKNTVYLQMNSLKPEDTAVYYCAADRSYGSSWYHYPEDALDAWGQGTQVTVSS
Regarding B2, the binding result is recorded as “binds”.
